Data published in the supplement of paper PMC10331698.
± gives the standard deviation of the averaged measurements. Small differences around the control level are noise.

Assays:
Assay in all cases: level (log10 ratio to DMSO vehicle control); higher = higher biomarker level / cell amount than vehicle control
Perfluoropentanoic acid = compound: O=C(O)C(F)(F)C(F)(F)C(F)(F)C(F)(F)F [Perfluoropentanoic acid]; details: in DMSO
Description: (§1)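 BioMAP Diversity Plus panel of 12 human primary cell co-culture systems (3C, 4H, LPS, SAg, BT, BF4T, BE3C, CASM3C, HDF3CGF, KF3CT, MyoF, Mphg). Compounds were added 1 h before stimulation and left for 24 h (MyoF 48 h; BT 72 h for soluble read-outs or 6 d for IgG). Biomarkers were read by ELISA, cytotoxicity by SRB, PBMC viability and proliferation by Alamar Blue. Each well value was divided by the mean of 8 DMSO control wells on the same plate and log10 transformed; duplicate blinded samples were tested at 4 concentrations.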

Heptafluorobutyramide = compound: NC(=O)C(F)(F)C(F)(F)C(F)(F)F [Heptafluorobutyramide]; details: 2200 nM; in DMSO
Description: as §1

1-(Perfluorohexyl)octane = compound: CCCCCCCCC(F)(F)C(F)(F)C(F)(F)C(F)(F)C(F)(F)C(F)(F)F [1-(Perfluorohexyl)octane]; details: in DMSO
Description: as §1

[1] = compound: CCN(CCO)S(=O)(=O)C(F)(F)C(F)(F)C(F)(F)C(F)(F)C(F)(F)C(F)(F)C(F)(F)C(F)(F)F [N-Ethyl-N-(2-hydroxyethyl)perfluorooctanesulfonamide]; details: in DMSO
Description: as §1

[2] = compound: OCCC(F)(F)C(F)(F)C(F)(F)C(F)(F)C(F)(F)C(F)(F)F [6:2 Fluorotelomer alcohol]; details: 2200 nM; in DMSO
Description: as §1

[3] = compound: O=S(=O)(O)CCC(F)(F)C(F)(F)C(F)(F)C(F)(F)C(F)(F)C(F)(F)C(F)(F)C(F)(F)F [8:2 Fluorotelomer sulfonic acid]; details: in DMSO
Description: as §1

[4] = compound: FC(F)(F)C(F)(F)C(F)(F)C(F)(F)C(F)(F)C(F)(F)CC1CO1 [3-(Perfluorohexyl)-1,2-epoxypropane]; details: 2200 nM; in DMSO
Description: as §1

Perfluoroheptanoic acid = compound: O=C(O)C(F)(F)C(F)(F)C(F)(F)C(F)(F)C(F)(F)C(F)(F)F [Perfluoroheptanoic acid]; details: in DMSO
Description: as §1

[5] = compound: NCC(F)(F)C(F)(F)C(F)(F)C(F)(F)C(F)(F)C(F)(F)C(F)(F)F [1H,1H-Perfluorooctylamine]; details: 2200 nM; in DMSO
Description: as §1

[6] = compound: CC(C)(C)C(=O)CC(=O)C(F)(F)C(F)(F)C(F)(F)F [(Heptafluorobutanoyl)pivaloylmethane]; details: 2200 nM; in DMSO
Description: as §1

Octafluoroadipic acid = compound: O=C(O)C(F)(F)C(F)(F)C(F)(F)C(F)(F)C(=O)O [Octafluoroadipic acid]; details: 2200 nM; in DMSO
Description: as §1

[7] = compound: CN(C(=O)C(F)(F)C(F)(F)C(F)(F)F)[Si](C)(C)C [N-Methyl-N-trimethylsilylheptafluorobutyramide]; details: 2200 nM; in DMSO
Description: as §1

[8] = compound: O=C(O)C(F)(F)C(F)(F)C(F)(F)OC(F)(F)F [Perfluoro(4-methoxybutanoic) acid]; details: 2200 nM; in DMSO
Description: as §1

1H,1H-Heptafluorobutanol = compound: OCC(F)(F)C(F)(F)C(F)(F)F [1H,1H-Heptafluorobutanol]; details: 2200 nM; in DMSO
Description: as §1

[9] = compound: Cc1ccc(S(=O)(=O)OCC(F)(F)C(F)(F)C(F)(F)C(F)(F)C(F)(F)C(F)F)cc1 [1H,1H,7H-Perfluoroheptyl 4-methylbenzenesulfonate]; details: 2200 nM; in DMSO
Description: as §1

[10] = compound: O=C(O)C(F)(F)C(F)(F)C(F)(F)C(F)(F)C(F)(F)C(F)(F)C(F)(F)C(F)(F)C(F)(F)C(F)F [11-H-Perfluoroundecanoic acid]; details: 2200 nM; in DMSO
Description: as §1

Test System	level (log10) (Perfluoropentanoic acid; 2200 nM)	level (log10) (Perfluoropentanoic acid; 6700 nM)	level (log10) (Perfluoropentanoic acid; 20000 nM)	level (log10) (Perfluoropentanoic acid; 60000 nM)	level (log10) (Heptafluorobutyramide)	level (log10) (1-(Perfluorohexyl)octane; 740 nM)	level (log10) (1-(Perfluorohexyl)octane; 2200 nM)	level (log10) ([1]; 2200 nM)	level (log10) ([1]; 6700 nM)	level (log10) ([1]; 20000 nM)	level (log10) [2]	level (log10) ([3]; 2200 nM)	level (log10) ([3]; 6700 nM)	level (log10) ([3]; 20000 nM)	level (log10) ([3]; 60000 nM)	level (log10) [4]	level (log10) (Perfluoroheptanoic acid; 2200 nM)	level (log10) (Perfluoroheptanoic acid; 6700 nM)	level (log10) (Perfluoroheptanoic acid; 20000 nM)	level (log10) (Perfluoroheptanoic acid; 60000 nM)	level (log10) [5]	level (log10) [6]	level (log10) (Octafluoroadipic acid)	level (log10) [7]	level (log10) [8]	level (log10) (1H,1H-Heptafluorobutanol)	level (log10) [9]	level (log10) [10]
KF3CT:IL-1alpha	0.0055 ± 0.033	-0.004 ± 0.017	0.004 ± 0.0028	-0.0115 ± 0.021	0.002 ± 0.04	0.0265 ± 0.046	0.0105 ± 0.032	-0.0305 ± 0.019	0.006 ± 0.028	-0.111	0.022 ± 0.013	-0.016 ± 0.034	-0.041 ± 0.027	-0.137 ± 0.033	-0.0655 ± 0.046	0.0005 ± 0.0035	-0.0015 ± 0.011	-0.007 ± 0.018	0.016 ± 0.014	-0.0115 ± 0.0064	-0.014 ± 0.016	0.0085 ± 0.025	0.0155 ± 0.07	0.0145 ± 0.0092	0.008 ± 0.04	0.0105 ± 0.015	0.0005 ± 0.076	0.0385 ± 0.047
KF3CT:MMP-9	-0.0025 ± 0.013	-0.0225 ± 0.025	-0.0205 ± 0.018	0.012 ± 0.038	0.0105 ± 0.005	0.0195 ± 0.037	0.0085 ± 0.039	0.0165 ± 0.012	0.01 ± 0.0085	-0.0875 ± 0.015	0.011 ± 0.0042	-0.0125 ± 0.0035	-0.009 ± 0.0014	0.0165 ± 0.0078	-0.0335 ± 0.018	-0.0015 ± 0.0078	-0.0055 ± 0.037	-0.0065 ± 0.0078	0.0165 ± 0.026	0.059 ± 0.025	-0.0145 ± 0.012	-0.0305 ± 0.013	0.002	-0.008 ± 0.017	0.0175 ± 0.0092	-0.0135 ± 0.0064	0.0055 ± 0.052	-0.0165 ± 0.022
KF3CT:PAI-I	0.001 ± 0.0099	0.0005 ± 0.021	-0.003	0.004 ± 0.0057	0.0085 ± 0.00071	0.01 ± 0.025	0.0145 ± 0.0035	-0.0255 ± 0.013	-0.0995 ± 0.011	-0.193 ± 0.014	-0.0025 ± 0.0035	0.0015 ± 0.0064	-0.0065 ± 0.022	-0.029 ± 0.014	-0.0255 ± 0.019	0.0155 ± 0.04	0.017 ± 0.02	-0.043 ± 0.016	-0.0355 ± 0.012	-0.013 ± 0.068	-0.004 ± 0.0099	-0.0135 ± 0.012	0.007 ± 0.0099	0.004 ± 0.0099	0.0015 ± 0.005	0.005 ± 0.013	0.027 ± 0.0028	0.002 ± 0.042
KF3CT:SRB	0.003 ± 0.018	-0.007 ± 0.0071	-0.004 ± 0.0014	0.0055 ± 0.011	0.0115 ± 0.018	0.006 ± 0.016	-0.0005 ± 0.023	-0.005 ± 0.0042	-0.015	-0.0305 ± 0.0092	0.001 ± 0.014	-0.0005 ± 0.011	-0.008 ± 0.0014	-0.0145 ± 0.0021	-0.004 ± 0.0071	0.008 ± 0.02	0.0105 ± 0.011	-0.0065 ± 0.005	-0.006 ± 0.0085	0.007 ± 0.016	0.0005 ± 0.0021	0.0105 ± 0.016	0.014 ± 0.018	-0.0055 ± 0.0064	0.0105 ± 0.019	0.0075 ± 0.013	-0.003 ± 0.017	-0.003 ± 0.0014
KF3CT:TIMP-2	-0.0015 ± 0.025	-0.013 ± 0.037	-0.0065 ± 0.0035	0.017 ± 0.045	0.013 ± 0.0057	0.0195 ± 0.029	0.033 ± 0.057	0.0275 ± 0.039	0.0855 ± 0.037	0.04 ± 0.0028	-0.0035 ± 0.022	0.006 ± 0.0085	-0.033 ± 0.0042	0.0075 ± 0.0064	0.0225 ± 0.0021	-0.021 ± 0.014	0.02 ± 0.013	0.006 ± 0.021	0.0085 ± 0.025	0.031 ± 0.017	-0.032 ± 0.059	-0.001 ± 0.013	0.0155 ± 0.016	-0.008 ± 0.011	0.013 ± 0.023	-0.008 ± 0.0028	0.0085 ± 0.018	0.022 ± 0.035
KF3CT:uPA	0.0085 ± 0.018	0.0015 ± 0.023	0 ± 0.0085	0.021 ± 0.0071	0.011 ± 0.0085	0.009 ± 0.014	0.0175 ± 0.019	0.018 ± 0.0085	0.022 ± 0.0028	-0.0225 ± 0.0021	-0.006 ± 0.0085	0.002 ± 0.011	0.007 ± 0.0042	0.006 ± 0.024	0.012 ± 0.016	0.011 ± 0.017	0.0055 ± 0.0035	0.007 ± 0.016	0.0065 ± 0.0021	0.0075 ± 0.013	-0.014 ± 0.018	-0.008 ± 0.027	0.0145 ± 0.025	0.002 ± 0.0071	0.0145 ± 0.015	-0.0015 ± 0.0064	-0.0085 ± 0.012	0.0045 ± 0.016
LPS:CCL2/MCP-1	0.003 ± 0.037	0.0065 ± 0.0064	-0.0065 ± 0.00071	0.0225 ± 0.039	0.026 ± 0.0042	0.015 ± 0.042	0.0135 ± 0.012	0.006 ± 0.0071	-0.017 ± 0.025	-0.0535 ± 0.012	-0.003 ± 0.048	0.018 ± 0.028	0.0135 ± 0.023	0.016 ± 0.0028	-0.055 ± 0.045	-0.0025 ± 0.032	0.009 ± 0.013	-0.0025 ± 0.021	-0.005 ± 0.0028	0.032 ± 0.011	-0.0095 ± 0.025	-0.018 ± 0.041	0.0195 ± 0.066	0.011 ± 0.0042	0.0365 ± 0.013	-0.0045 ± 0.036	0.0065 ± 0.049	-0.007 ± 0.025
LPS:CD40	0.003 ± 0.0071	0.0115 ± 0.011	0.0075 ± 0.022	-0.0265 ± 0.013	-0.013	-0.025 ± 0.027	0.01 ± 0.082	0.0575 ± 0.049	0.0735 ± 0.022	0.122 ± 0.0042	-0.0275 ± 0.057	0.0105 ± 0.011	0.037 ± 0.016	-0.0195 ± 0.021	-0.128 ± 0.024	-0.072 ± 0.096	-0.0175 ± 0.044	-0.0135 ± 0.043	0.0055 ± 0.00071	-0.0515 ± 0.079	-0.035 ± 0.023	0.024 ± 0.042	-0.012 ± 0.085	-0.0185 ± 0.036	-0.026 ± 0.0028	0.054 ± 0.02	0.0075 ± 0.05	-0.0205 ± 0.0035
